# Earlier results as cited in US20250108068A1, “COMPOSITIONS AND METHODS FOR ALLEVIATING PULMONARY AILMENTS” (Color Ventures LLC, priority 2023, published 2025).
# Some of these results come from one statement about several compounds together.
# System: sheep
# Settings: nebulization after CFTR inhibition with INH-172; cited from earlier work
structure (smiles),measurement,value
N=C(N)NC(=O)c1nc(Cl)c(N)nc1N [amiloride],Duration of rescue of TMV,2 to 3 h
